Assay results taken from the supplement of paper PMC9015667.
Structures can show the parent of a compound that is named as a salt. This is one part of the list. Many values rest on one well or one pass, so single values are uncertain.

What was measured:
Assay in all cases: reduction in cell viability relative to untreated/vehicle; higher = more growth inhibition
Settings in all cases: 200 nM; 72 h
M229P = system: M229P (parental melanoma line)
M229R = system: M229R (matched melanoma line resistant to BRAF inhibitors)
M238P = system: M238P (parental melanoma line)
M238R = system: M238R (matched melanoma line resistant to BRAF inhibitors)
M249P = system: M249P (parental melanoma line)
M249R = system: M249R (matched melanoma line resistant to BRAF inhibitors)
UACC62P = system: UACC62P (parental melanoma line)
UACC62R = system: UACC62R (matched melanoma line resistant to BRAF inhibitors)

Measured: reduction in cell viability

CCNC(=O)c1cc2c(-c3cc(OCCN4CCCC4)c(Cl)cc3Cl)nc(N)nc2s1
< 0%: all assays above

Cn1c(Nc2ccc(C(F)(F)F)cc2)nc2cc(Oc3ccnc(-c4ncc(C(F)(F)F)[nH]4)c3)ccc21
78%: UACC62P
9.6%: M238R
54.5%: M249P
45.1%: M238P
48%: UACC62R
39.8%: M229P
< 0%: M229R
57.2%: M249R

CCc1cc(Nc2nccc(-c3c(-c4ccc(OC)c(C(=O)Nc5c(F)cccc5F)c4)nc4ccccn34)n2)c(OC)cc1N1CCC(N2CCN(S(C)(=O)=O)CC2)CC1
< 0%: all assays above

CC(C)NCC(O)c1ccc(NS(C)(=O)=O)cc1 (stereo not drawn) [Sotalol]
< 0%: all assays above

CC(=O)OCC(=O)[C@@]1(O)CC[C@H]2[C@@H]3CCC4=CC(=O)C=C[C@]4(C)[C@H]3[C@@H](O)C[C@@]21C [Prednisolone acetate]
< 0%: all assays above

O=C(c1cc(Cc2n[nH]c(=O)c3ccccc23)ccc1F)N1CCN(C(=O)C2CC2)CC1 [Olaparib]
< 0%: all assays above

CCCCCCCCCCCCCCCC(=O)O[C@@H]1[C@@H](O)[C@@H](O)[C@@H]([C@H](NC(=O)[C@@H]2C[C@@H](CCC)CN2C)[C@H](C)Cl)O[C@@H]1SC [Clindamycin palmitate hydrochloride]
< 0%: all assays above

O=C(Nc1cc(Cl)cc2c1[nH]c1cnccc12)c1cccnc1
0.81%: M249R
< 0%: all other assays above

O=C1CCCC2=C1C(c1[nH]ncc1Cl)N=C(Nc1nc3ccccc3o1)N2 (stereo not drawn)
12.2%: UACC62P
< 0%: all other assays above

CC(=O)OC[C@H]1O[C@@H]([S-])[C@H](OC(C)=O)[C@@H](OC(C)=O)[C@@H]1OC(C)=O.CCP(CC)CC.[Au+] [Auranofin]
65.9%: M238P
12.5%: M229P
73.4%: M238R
22.4%: UACC62R
3.08%: M249P
16.2%: UACC62P
7.54%: M249R
24.4%: M229R

C=C1/C(=C\C=C2/CCC[C@]3(C)[C@@H]([C@H](C)CCCC(C)(C)O)CC[C@@H]23)C[C@@H](O)C[C@@H]1O [Calcitriol]
< 0%: all assays above

CN(C)[C@@H]1C(O)=C(C(N)=O)C(=O)[C@@]2(O)C(O)=C3C(=O)c4c(O)cccc4[C@@](C)(O)[C@H]3[C@H](O)[C@@H]12 [Oxytetracycline]
< 0%: all assays above

COc1ncnc(NS(=O)(=O)c2ccc(N)cc2)c1OC [Sulfadoxine]
2%: M249P
2.24%: UACC62P
< 0%: all other assays above

Cc1ccc(C(=O)Nc2cccc(C(F)(F)F)c2)cc1Nc1nc(-c2cccnc2)nc2c1cnn2C
17.2%: UACC62P
< 0%: all other assays above

CCOC(=O)[C@H](CCc1ccccc1)N[C@H]1CCc2ccccc2N(CC(=O)O)C1=O [Benazepril]
12.1%: M229R
< 0%: all other assays above

CNC[C@H](O)[C@@H](O)[C@H](O)[C@H](O)CO [Meglumine]
< 0%: all assays above

CCOC(=O)O[C@]1(C(=O)OCCl)CC[C@H]2[C@@H]3CCC4=CC(=O)C=C[C@]4(C)[C@H]3[C@@H](O)C[C@@]21C [Loteprednol etabonate]
16.1%: M249P
4.95%: UACC62P
< 0%: all other assays above

CN(C)CCOc1ccc(/C(=C(/CCCl)c2ccccc2)c2ccccc2)cc1 [Toremifene]
< 0%: all assays above

OCCN(CCO)c1nc(N2CCCCC2)c2nc(N(CCO)CCO)nc(N3CCCCC3)c2n1 [Dipyridamole]
< 0%: all assays above

CC(=O)O/N=C1/C(c2c(O)[nH]c3cc(Br)ccc23)=Nc2ccccc21 [6-Bromoindirubin-3-acetoxime]
< 0%: all assays above

CCOc1cc(CC(=O)N[C@@H](CC(C)C)c2ccccc2N2CCCCC2)ccc1C(=O)O [Repaglinide]
3.24%: UACC62P
< 0%: all other assays above

CC(C)Oc1ccc(C(=O)N[C@H](CNC(=O)CN(C)C)Cc2ccc(-c3cn4cccc([C@H](C)O)c4n3)cc2)cc1Cl
59.3%: M238P
84.5%: UACC62R
47.9%: M229R
28.7%: M249P
29.9%: M229P
43.5%: M249R
57.6%: UACC62P
63.4%: M238R

Clc1ccc2ncc(-c3cccc(NC4CNC4)n3)n2c1
< 0%: all assays above

Oc1ccc(/C=C/c2cc(O)cc(O)c2)cc1 [Resveratrol]
< 0%: all assays above

COc1cc(O)c2c(c1)C(=O)c1c(O)c(C)cc(O)c1C2=O [Parietin]
< 0%: all assays above

Cc1nc(-c2ccc(OCC(C)C)c(C#N)c2)sc1C(=O)O [Febuxostat]
9.04%: M249P
< 0%: all other assays above

CO[C@H]1/C=C/O[C@@]2(C)Oc3c(C)c(O)c4c(c3C2=O)C2=NC3(CCN(CC(C)C)CC3)NC2=C(NC(=O)/C(C)=C\C=C\[C@H](C)[C@H](O)[C@@H](C)[C@@H](O)[C@@H](C)[C@H](OC(C)=O)[C@@H]1C)C4=O [Rifabutin]
4.71%: M229R
< 0%: all other assays above

CC1=NN(c2ccccc2)C(=O)C1 [Edaravone]
17.7%: UACC62P
2.84%: UACC62R
4.39%: M249P
< 0%: all other assays above

By substructure, those above containing a CF3 group (2)
Cn1c(Nc2ccc(C(F)(F)F)cc2)nc2cc(Oc3ccnc(-c4ncc(C(F)(F)F)[nH]4)c3)ccc21
78%: UACC62P
9.6%: M238R
54.5%: M249P
45.1%: M238P
48%: UACC62R
39.8%: M229P
< 0%: M229R
57.2%: M249R

Cc1ccc(C(=O)Nc2cccc(C(F)(F)F)c2)cc1Nc1nc(-c2cccnc2)nc2c1cnn2C
17.2%: UACC62P
< 0%: all other assays above

Further results follow:

CN1CCN(c2cccc(Nc3nc4c(-c5ccc(S(C)(=O)=O)cc5)cccn4n3)c2)CC1
2.39%: UACC62R
2.38%: UACC62P
< 0%: all other assays above

C=CC(=O)Nc1cc(NC(=O)c2ccc(C)c(NC(=O)c3ccno3)c2)cc(C(F)(F)F)c1
< 0%: all assays above

CNC(=O)c1ccc(C)c(-n2c(C)cc(OCc3ccc(F)cc3F)c(Br)c2=O)c1
4.65%: UACC62P
< 0%: all other assays above

COC(=O)Nc1nc2cc([S+]([O-])c3ccccc3)ccc2[nH]1 (stereo not drawn) [Oxfendazole]
< 0%: all assays above

FC(F)c1nc2ccccc2n1-c1nc(N2CCOCC2)nc(N2CCOCC2)n1
15.8%: M238R
6.02%: M249R
9.77%: M229R
1.89%: UACC62R
10.5%: M238P
< 0%: all other assays above

O=C(O)C1=N[C@H](C(=O)O)CC(/C=C/N2c3cc(O)c(O[C@@H]4O[C@H](CO)[C@@H](O)[C@H](O)[C@H]4O)cc3C[C@H]2C(=O)O)=C1 [Betanin]
< 0%: all assays above

Cc1cc(-c2ncc(CC(=O)Nc3ccc(-c4cnccn4)cn3)cc2C)ccn1
< 0%: all assays above

O=C(O)c1cc(O)c2c(c1)C(=O)c1cccc(O)c1C2=O [Rhein]
6.43%: UACC62P
< 0%: all other assays above
